In patent US20230183661A1, “BICOMPATIBLE PEPTIDEBIOCOMPATIBLE PEPTIDES FOR INHIBITION OF AGGREGATION OF B-AMYLOID PROTEIN” (Catholic University Industry Academic Cooperation Foundation, priority 2017, published 2023):

Tested on: nerve cells (N2a)
Assay: Self-aggregate formation of peptide overexpressed in nerve cells (N2a), immunofluorescence
Assay type: cell-based, mouse
Details: FIG. 4
Procedure: Twenty-four hours after the transfection, N2a cells were incubated in a 4% paraformaldehyde fixation solution for 15 minutes. The cells were washed with PBS three times, and incubated in a 50 mM NH4Cl/PBS quenching solution for 10 minutes.
Subsequently, the cells were washed with PBS three times, and incubated in a 0.1% Triton X-100/PBS solution for 5 minutes. The cells were then treated and incubated with 2% FBS/blocking buffer at room temperature for 1 hour. The cells were then treated and incubated with FLAG antibodies diluted 1/100 at room temperature for 2 hours, washed with PBS three times, and then treated and incubated with a goat anti-mouse Alexa Fluor®-red 594 dye.
The sample was washed with PBS three times, and mounted on a glass slide using a FluoroGuard Antifade reagent (Bio-Rad Laboratories, Inc.). A fluorescent image was obtained using a confocal laser scanning microscope (Zeiss LSM 510 Meta, Carl Zeiss AG), and processed using Adobe® Photoshop®, and a fluorescence signal intensity was measured using a ZEN 2009 Light Edition software program.
To identify whether a self-aggregate of the peptide (NABi) of the present invention was formed, the peptide of the present invention was overexpressed in nerve cells (N2a), and then measured by an immunofluorescence method.

## G93A: SOD1 mutant in which the 93th amino acid glycine was changed to alanine; aggregation and apoptosis comparator [Peptide G93A, reference compound]
  Nerve cells with protein aggregates: ≥ 60%
